Compound in this assay: CN[C@@H]1C[C@H]2O[C@@](C)([C@@H]1OC)n1c3ccccc3c3c4c(c5c6ccccc6n2c5c31)C(=O)NC4 [staurosporine]
Kind of assay: log2 fold change of tryptic peptide abundance, ligand vs vehicle (limited proteolysis) (log2 ratio); higher = more trypsin-susceptible (destabilized). The note with it: ligand concentration: 20 uM; sample: K562 cleared lysate; digestion: 4 min, 22 C (HT-PELSA RT4min, Orbitrap Astral).

Chains of the proteins cited; added tags and fusions are not shown. Lines headed by an entry give the natural chain unless they say otherwise; changes in a name come on top.
UniProt Q93033: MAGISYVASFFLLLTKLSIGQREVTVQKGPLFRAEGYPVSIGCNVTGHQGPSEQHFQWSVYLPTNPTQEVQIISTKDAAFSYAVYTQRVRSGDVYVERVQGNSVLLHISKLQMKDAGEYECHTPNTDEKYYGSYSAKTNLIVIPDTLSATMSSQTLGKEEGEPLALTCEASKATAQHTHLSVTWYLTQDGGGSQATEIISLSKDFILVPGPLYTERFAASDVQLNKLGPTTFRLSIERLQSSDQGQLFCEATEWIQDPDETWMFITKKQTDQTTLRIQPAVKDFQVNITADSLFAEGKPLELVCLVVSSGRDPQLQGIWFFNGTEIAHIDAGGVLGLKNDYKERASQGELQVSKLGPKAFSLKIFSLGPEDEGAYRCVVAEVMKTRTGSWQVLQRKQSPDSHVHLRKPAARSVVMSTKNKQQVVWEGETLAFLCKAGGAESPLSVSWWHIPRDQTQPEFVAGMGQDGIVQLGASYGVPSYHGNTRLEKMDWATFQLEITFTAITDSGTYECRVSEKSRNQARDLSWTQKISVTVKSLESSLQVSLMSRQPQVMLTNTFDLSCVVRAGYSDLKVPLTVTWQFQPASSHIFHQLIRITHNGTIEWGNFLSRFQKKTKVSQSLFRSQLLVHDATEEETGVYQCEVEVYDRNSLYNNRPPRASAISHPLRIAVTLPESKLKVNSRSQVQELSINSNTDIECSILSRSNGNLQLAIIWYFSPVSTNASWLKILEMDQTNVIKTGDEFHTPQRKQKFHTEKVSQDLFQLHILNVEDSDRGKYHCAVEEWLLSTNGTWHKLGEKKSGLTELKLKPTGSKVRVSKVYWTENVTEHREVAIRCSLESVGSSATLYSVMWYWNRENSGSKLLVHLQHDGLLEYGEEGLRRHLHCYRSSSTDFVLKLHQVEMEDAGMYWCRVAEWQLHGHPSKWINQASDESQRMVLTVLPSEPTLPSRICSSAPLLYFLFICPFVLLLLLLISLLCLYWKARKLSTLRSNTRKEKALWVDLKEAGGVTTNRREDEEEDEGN
UniProt Q96AB3: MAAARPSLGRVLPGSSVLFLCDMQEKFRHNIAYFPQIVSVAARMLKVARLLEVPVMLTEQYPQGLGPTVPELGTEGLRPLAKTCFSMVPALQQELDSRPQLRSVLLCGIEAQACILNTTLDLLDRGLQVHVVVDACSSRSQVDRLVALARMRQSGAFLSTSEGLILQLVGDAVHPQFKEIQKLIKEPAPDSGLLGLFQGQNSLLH
UniProt Q96FV9: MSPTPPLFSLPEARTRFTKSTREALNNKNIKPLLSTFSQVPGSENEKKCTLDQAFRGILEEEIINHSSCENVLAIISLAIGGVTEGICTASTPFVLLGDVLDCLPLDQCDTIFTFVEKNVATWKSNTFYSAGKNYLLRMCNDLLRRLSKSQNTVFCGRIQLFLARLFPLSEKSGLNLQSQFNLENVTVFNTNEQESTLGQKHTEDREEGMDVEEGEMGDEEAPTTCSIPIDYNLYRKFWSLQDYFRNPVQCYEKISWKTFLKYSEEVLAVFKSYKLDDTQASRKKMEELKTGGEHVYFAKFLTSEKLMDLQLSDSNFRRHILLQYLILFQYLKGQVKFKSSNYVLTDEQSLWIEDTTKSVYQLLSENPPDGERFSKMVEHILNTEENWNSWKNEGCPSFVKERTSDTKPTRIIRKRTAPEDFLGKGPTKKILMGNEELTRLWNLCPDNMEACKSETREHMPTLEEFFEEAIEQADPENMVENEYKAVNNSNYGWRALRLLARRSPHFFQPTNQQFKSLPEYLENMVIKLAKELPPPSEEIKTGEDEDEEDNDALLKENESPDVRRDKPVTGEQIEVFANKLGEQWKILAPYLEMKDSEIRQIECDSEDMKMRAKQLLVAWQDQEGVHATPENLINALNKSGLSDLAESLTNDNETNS
UniProt Q969R8: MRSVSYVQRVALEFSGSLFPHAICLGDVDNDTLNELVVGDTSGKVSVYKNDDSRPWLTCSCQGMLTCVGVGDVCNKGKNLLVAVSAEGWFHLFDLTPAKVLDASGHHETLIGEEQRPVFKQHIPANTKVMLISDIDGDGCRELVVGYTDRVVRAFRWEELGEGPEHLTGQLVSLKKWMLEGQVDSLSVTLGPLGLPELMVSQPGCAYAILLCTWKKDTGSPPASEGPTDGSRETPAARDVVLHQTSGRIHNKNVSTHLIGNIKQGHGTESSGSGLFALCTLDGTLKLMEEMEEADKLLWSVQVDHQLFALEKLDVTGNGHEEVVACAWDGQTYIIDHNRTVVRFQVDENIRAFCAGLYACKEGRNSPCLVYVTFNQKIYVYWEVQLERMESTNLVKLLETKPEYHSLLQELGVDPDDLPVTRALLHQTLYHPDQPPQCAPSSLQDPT
UniProt Q96G21: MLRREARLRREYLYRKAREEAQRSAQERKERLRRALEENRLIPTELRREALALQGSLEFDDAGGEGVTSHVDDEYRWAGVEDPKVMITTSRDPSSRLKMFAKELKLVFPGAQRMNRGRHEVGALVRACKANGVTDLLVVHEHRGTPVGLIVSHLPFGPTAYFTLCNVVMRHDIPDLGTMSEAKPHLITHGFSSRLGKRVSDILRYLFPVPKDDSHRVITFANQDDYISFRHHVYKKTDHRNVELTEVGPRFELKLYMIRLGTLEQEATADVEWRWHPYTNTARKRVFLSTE
UniProt Q96BH1: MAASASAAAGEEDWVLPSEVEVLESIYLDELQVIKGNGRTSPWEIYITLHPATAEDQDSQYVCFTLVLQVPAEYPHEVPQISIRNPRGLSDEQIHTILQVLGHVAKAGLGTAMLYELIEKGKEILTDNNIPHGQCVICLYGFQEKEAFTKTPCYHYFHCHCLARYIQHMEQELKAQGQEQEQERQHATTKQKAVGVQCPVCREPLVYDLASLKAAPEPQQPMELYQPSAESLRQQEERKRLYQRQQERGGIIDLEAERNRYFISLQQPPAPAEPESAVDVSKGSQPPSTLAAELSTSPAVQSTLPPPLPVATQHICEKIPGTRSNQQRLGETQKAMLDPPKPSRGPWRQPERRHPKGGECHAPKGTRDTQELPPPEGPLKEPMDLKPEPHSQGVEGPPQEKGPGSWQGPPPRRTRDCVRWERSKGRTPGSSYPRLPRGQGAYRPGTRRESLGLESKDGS
UniProt Q96E35: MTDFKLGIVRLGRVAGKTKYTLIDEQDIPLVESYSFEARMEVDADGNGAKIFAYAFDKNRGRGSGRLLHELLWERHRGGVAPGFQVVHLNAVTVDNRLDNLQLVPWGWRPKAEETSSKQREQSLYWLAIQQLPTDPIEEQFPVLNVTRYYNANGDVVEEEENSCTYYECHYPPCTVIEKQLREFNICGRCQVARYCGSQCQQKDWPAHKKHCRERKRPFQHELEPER
UniProt Q96C19: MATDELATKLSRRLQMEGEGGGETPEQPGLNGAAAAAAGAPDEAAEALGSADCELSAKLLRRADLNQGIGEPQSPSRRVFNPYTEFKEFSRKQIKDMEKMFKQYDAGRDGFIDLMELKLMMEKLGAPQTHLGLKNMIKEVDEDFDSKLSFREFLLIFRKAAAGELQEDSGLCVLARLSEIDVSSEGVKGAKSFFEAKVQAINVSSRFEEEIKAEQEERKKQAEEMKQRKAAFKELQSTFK
UniProt Q96AD5: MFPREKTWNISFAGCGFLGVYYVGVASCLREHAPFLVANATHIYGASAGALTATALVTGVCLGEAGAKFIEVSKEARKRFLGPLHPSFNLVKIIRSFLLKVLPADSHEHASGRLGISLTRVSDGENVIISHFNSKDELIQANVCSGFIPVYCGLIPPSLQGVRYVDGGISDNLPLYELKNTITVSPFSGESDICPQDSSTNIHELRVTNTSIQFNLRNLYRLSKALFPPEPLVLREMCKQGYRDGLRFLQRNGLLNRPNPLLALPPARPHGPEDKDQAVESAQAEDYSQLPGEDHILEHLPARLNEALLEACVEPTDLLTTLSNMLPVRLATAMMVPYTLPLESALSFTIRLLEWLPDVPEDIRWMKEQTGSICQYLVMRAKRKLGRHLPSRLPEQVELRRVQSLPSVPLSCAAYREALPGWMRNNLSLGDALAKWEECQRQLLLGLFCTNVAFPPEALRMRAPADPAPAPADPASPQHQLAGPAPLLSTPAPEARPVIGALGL
UniProt Q92925, whole entry: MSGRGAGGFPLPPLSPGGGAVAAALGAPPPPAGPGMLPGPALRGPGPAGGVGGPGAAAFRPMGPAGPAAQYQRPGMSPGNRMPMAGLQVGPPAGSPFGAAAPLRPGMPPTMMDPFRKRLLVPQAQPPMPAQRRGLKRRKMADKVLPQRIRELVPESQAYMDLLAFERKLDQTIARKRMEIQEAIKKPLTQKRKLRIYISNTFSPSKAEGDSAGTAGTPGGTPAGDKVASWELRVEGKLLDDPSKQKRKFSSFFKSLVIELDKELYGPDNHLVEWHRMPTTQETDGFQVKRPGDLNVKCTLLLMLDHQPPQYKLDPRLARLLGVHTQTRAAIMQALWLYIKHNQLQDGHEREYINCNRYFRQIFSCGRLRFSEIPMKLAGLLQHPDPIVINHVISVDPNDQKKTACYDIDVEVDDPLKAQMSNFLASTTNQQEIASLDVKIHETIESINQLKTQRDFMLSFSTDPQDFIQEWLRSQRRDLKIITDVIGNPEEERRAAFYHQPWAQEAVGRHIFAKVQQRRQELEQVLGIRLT
UniProt Q969S2: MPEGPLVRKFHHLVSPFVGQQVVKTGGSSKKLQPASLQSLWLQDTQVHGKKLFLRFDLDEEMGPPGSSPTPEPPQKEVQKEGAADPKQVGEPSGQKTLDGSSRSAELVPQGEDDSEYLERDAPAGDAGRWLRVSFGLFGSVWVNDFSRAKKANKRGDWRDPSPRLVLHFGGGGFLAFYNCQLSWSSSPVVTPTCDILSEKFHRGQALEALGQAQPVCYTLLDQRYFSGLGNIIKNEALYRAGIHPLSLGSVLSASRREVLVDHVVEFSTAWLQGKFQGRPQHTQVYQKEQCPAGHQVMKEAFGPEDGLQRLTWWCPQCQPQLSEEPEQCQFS
UniProt Q96C00: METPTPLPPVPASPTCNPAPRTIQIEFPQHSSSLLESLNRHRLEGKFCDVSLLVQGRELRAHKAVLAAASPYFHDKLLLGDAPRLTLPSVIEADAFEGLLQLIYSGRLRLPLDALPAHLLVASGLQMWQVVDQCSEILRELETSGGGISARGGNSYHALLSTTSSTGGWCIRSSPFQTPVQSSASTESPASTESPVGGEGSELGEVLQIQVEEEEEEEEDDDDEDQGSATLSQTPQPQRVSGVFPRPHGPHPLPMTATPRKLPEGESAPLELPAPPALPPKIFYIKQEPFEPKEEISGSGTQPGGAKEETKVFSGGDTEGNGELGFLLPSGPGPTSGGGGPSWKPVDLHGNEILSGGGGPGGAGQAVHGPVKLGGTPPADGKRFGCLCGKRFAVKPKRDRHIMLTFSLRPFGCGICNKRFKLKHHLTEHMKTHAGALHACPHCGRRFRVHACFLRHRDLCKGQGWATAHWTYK
UniProt Q96A19: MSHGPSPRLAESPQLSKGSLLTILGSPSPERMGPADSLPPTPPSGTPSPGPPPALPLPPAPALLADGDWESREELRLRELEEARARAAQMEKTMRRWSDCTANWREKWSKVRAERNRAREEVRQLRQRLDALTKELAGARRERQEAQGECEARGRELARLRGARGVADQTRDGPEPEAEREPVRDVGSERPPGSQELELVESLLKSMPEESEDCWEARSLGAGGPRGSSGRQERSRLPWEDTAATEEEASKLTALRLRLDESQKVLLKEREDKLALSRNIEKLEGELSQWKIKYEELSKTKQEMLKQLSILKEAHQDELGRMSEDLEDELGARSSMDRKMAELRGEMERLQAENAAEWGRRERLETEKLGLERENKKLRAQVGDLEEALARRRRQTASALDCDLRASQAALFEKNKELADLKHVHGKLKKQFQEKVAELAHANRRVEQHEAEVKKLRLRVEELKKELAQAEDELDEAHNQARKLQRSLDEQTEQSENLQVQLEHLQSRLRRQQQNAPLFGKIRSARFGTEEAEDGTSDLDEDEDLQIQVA
UniProt Q96DM3: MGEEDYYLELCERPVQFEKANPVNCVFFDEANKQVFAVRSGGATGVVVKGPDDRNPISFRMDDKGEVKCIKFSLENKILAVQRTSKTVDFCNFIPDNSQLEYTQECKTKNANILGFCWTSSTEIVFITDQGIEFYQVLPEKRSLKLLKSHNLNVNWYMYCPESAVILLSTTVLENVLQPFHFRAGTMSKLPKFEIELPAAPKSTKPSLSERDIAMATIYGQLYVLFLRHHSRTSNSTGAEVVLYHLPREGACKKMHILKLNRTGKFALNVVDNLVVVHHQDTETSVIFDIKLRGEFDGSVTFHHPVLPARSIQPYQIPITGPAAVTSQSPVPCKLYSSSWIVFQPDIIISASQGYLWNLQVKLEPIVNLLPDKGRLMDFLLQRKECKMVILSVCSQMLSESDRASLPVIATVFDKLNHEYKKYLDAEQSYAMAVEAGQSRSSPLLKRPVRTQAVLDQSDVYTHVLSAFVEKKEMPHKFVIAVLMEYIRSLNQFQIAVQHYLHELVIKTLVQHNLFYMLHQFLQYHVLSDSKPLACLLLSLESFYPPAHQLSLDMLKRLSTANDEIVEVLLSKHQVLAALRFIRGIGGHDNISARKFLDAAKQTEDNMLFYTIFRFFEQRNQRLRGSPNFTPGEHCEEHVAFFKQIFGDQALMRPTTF

This is one part of the list. Most entries show no effect beyond the scatter of the controls.

Turning to “UniProt Q93033 (peptide sequence: LGPKAFSLK, peptide start residue: 355)”, the log2 fold change was -0.28. As for “PPWD1 (peptide sequence: WVGPLPVEATLAK, peptide start residue: 50) (UniProt Q96BP3)”, the log2 fold change was found to be 0.295.

With “ISOC2 (peptide sequence: AAARPSLGR, peptide start residue: 2) (UniProt Q96AB3)”, the log2 fold change is -0.285. With “BSCL2 (peptide sequence: FSLQVNIR, peptide start residue: 268) (UniProt Q96G97)”, the log2 fold change is -0.0766. Then “THOC1 (peptide sequence: RHILLQYLILFQYLK, peptide start residue: 319) (UniProt Q96FV9)”, with 0.73. As for “ITFG2 (peptide sequence: FQVDENIR, peptide start residue: 344) (UniProt Q969R8)”, the log2 fold change is -0.293.

“IMP4 (peptide sequence: WHPYTNTAR, peptide start residue: 275) (UniProt Q96G21)”: the log2 fold change was 0.127. The result for “PYCR2 (peptide sequence: HIVVSCAAGVTISSVEK, peptide start residue: 90) (UniProt Q96C36)” reads -0.516; that for “PTER (peptide sequence: ILQEAGADISK, peptide start residue: 215) (UniProt Q96BW5)”, 0.297; that for “WBP2 (peptide sequence: MLQVASQASR, peptide start residue: 126) (UniProt Q969T9)”, 0.171. For “FAF2 (peptide sequence: FQIEANFPR, peptide start residue: 401) (UniProt Q96CS3)”, the log2 fold change amounted to 0.169. “RNF25 (peptide sequence: GPGSWQGPPPRR, peptide start residue: 402) (UniProt Q96BH1)”: the log2 fold change came out at 0.229.

As to “SDSL (peptide sequence: GHASLVQELK, peptide start residue: 150) (UniProt Q96GA7)”, the log2 fold change was 0.195. For “ZMYND19 (peptide sequence: LDNLQLVPWGWRPK, peptide start residue: 98) (UniProt Q96E35)”, the log2 fold change was -0.133.

Take “TTC28 (peptide sequence: ALSNLGNFHCSR, peptide start residue: 596) (UniProt Q96AY4)”: the log2 fold change came out at 0.691. “UniProt Q96ES7 (peptide sequence: SRSEHNLVNIQK, peptide start residue: 29)”: the log2 fold change was 0.804. Take “PTCD3 (peptide sequence: SDLREEILMLMAR, peptide start residue: 525) (UniProt Q96EY7)”: the log2 fold change was 0.222.

For the target “UniProt Q96C28 (peptide sequence: AVELSFICGTCGKALSCHSR, peptide start residue: 171)”, the log2 fold change was -0.232. Then “EFHD2 (peptide sequence: LSEIDVSSEGVKGAK, peptide start residue: 177) (UniProt Q96C19)”, with 1.02; and “PNPLA2 (peptide sequence: NNLSLGDALAK, peptide start residue: 425) (UniProt Q96AD5)”, with 0.35; and “SMARCD2 (peptide sequence: CTLLLMLDHQPPQYK, peptide start residue: 298) (UniProt Q92925)”, with -0.404. Take “NEIL2 (peptide sequence: FQGRPQHTQVYQK, peptide start residue: 276) (UniProt Q969S2)”: the log2 fold change is 0.41. Regarding “ZBTB9 (peptide sequence: EEISGSGTQPGGAKEETK, peptide start residue: 294) (UniProt Q96C00)”, the log2 fold change was 0.593. In the case of “RPGR (peptide sequence: TNDDSSAETIEKK, peptide start residue: 891) (UniProt Q92834)”, the log2 fold change is -0.498. On to “USP9X (peptide sequence: AICLDHAK, peptide start residue: 1059) (UniProt Q93008)”, for which the log2 fold change was found to be 0.298. Consider “CCDC102A (peptide sequence: ELAQAEDELDEAHNQAR, peptide start residue: 466) (UniProt Q96A19)”, for which the log2 fold change was determined as 0.8. As to “TANK (peptide sequence: IREQQEQLSLQQTIIDKLK, peptide start residue: 41) (UniProt Q92844)”, the log2 fold change is -0.528.

Consider “UniProt Q96DM3 (peptide sequence: MDDKGEVK, peptide start residue: 61)”, for which the log2 fold change was -0.787.

Values taken from the supplement of paper PMC12819154, “High-throughput peptide-centric local stability assay extends protein–ligand identification to membrane proteins, tissues and bacteria” (Nature Structural & Molecular Biology, 2025).
